Results deposited as PubChem BioAssay AID1259405 (NCATS, 2018).
Purpose: 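Knock-downs that lift recombinant protein yield in hamster ovary cells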 (primary screen). System: Chinese hamster CHO-K1 ovary cells with stable secreted eGFP expression. Reagents: single siRNA against mouse genes, 0.8 pmol siRNA per well (2 µl of 400 nM stock). Duration: 3 days. Measured: 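Percent of the per-plate non-targeting control median for intracellular GFP per well by laser scanning cytometry and for cell viability by ATP luminescence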. Reading the numbers: GFP, % of control: higher = more GFP per well, higher productivity; viability (ATP), % of control: higher = more viable cells (more ATP). Hit rule: 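a knock-down is called active if GFP reaches 120% or more of non-targeting control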.
This is one part, drawn at random, of about 50,000 reagents. About 4,000 of all reagents (8%) count as active. 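Mouse siRNA library applied to hamster cells; one well for each siRNA.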 A number with no mark means an inactive call. Reagents against one gene are numbered here.

target gene,reagent,"GFP, % of control","viability (ATP), % of control"
Setdb1,1,134 (active),120
Setdb1,2,85.6,91.3
Kcnk4,1,49.4,27
Kcnk4,2,52.7,71.2
Kcnk4,3,59.4,71.9
Minar1,1,95.2,54
Minar1,2,53,36
Minar1,3,77.6,89.7
Cga,1,56,48.3
Cga,2,88.8,77.2
Cga,3,62.8,45.3
Wdr54,1,99.6,102
Wdr54,2,88.2,118
Wdr54,3,33.2,61.3
Or5j1,1,88.8,92.2
Or5j1,2,48,47.7
Or5j1,3,55.6,48.7
Gpr141b,1,87.8,86.6
Gpr141b,2,106,89
Gpr141b,3,108,84.5
Susd3,1,66.8,73.2
Susd3,2,77.3,72
Susd3,3,42.1,47.1
Thada,1,98.3,81.1
Thada,2,96.5,100
Thada,3,78.8,64.5
Zfp354c,1,68.4,68.9
Zfp354c,2,57.9,75.2
Zfp354c,3,77.4,81.9
Dlk2,1,86.6,77.7
Dlk2,2,89.8,69.5
Dlk2,3,102,34.4
Or14c39,1,126 (active),61
Or14c39,2,69.4,53.5
Or14c39,3,95.3,82
H13,1,84.6,96.7
H13,2,52.9,63.3
H13,3,52.8,65.5
Dhcr24,1,83.6,130
Dhcr24,2,95.9,89.9
Sh3pxd2b,1,44.1,39.2
Sh3pxd2b,2,66.8,73.9
Sh3pxd2b,3,151 (active),70.9
Kcnj12,1,99.3,98
Kcnj12,2,68.5,89.7
Kcnj12,3,71,61.2
Myrip,1,71.9,51.9
Myrip,2,81.2,86.5
Tcf3,1,73.3,88.6
Tcf3,2,83.4,70.6
Tcf3,3,81.4,89.2
Nradd,1,181 (active),57.4
Nradd,2,106,86.1
Nradd,3,26.9,11.9

Reformatted: entries from further up
Thada #3 — GFP, % of control: 78.8; viability (ATP), % of control: 64.5
Zfp354c #1 — GFP, % of control: 68.4; viability (ATP), % of control: 68.9
Zfp354c #2 — GFP, % of control: 57.9; viability (ATP), % of control: 75.2
Zfp354c #3 — GFP, % of control: 77.4; viability (ATP), % of control: 81.9
Dlk2 #1 — GFP, % of control: 86.6; viability (ATP), % of control: 77.7

More results:
target gene,reagent,"GFP, % of control","viability (ATP), % of control"
Mgat3,1,83.6,81.2
Mgat3,2,95.2,97.7
Mgat3,3,85.8,86.1
Wdr95,1,72.8,70.9
Wdr95,2,51.2,42.8
Wdr95,3,80.7,85.9
St3gal6,1,55,73.9
St3gal6,2,121 (active),94.7
St3gal6,3,87.9,105
Usp28,1,77.3,105
Usp28,2,51.5,43.4
Usp28,3,62.5,58.7
Syt1,1,133 (active),92
Syt1,2,85.7,74.9
Cnot7,1,73.4,61
Cnot7,2,93.1,77
Mrps9,1,111,90.6
Mrps9,2,153 (active),114
Mrps9,3,72,81.3
Bcl11b,1,109,85.9
Bcl11b,2,71.9,60.2
Sdf2l1,1,50.9,61.3
Sdf2l1,2,78.9,57.5
Sdf2l1,3,77.6,91.8
Vcpip1,1,65.1,40.5
Vcpip1,2,111,87.2
Vcpip1,3,95.4,105
Thnsl2,1,48.3,44.4
Thnsl2,2,77.6,98
Thnsl2,3,53.1,43.4
